The values below come from patent publication US7671009B2 (DSM IP Assets B.V., priority 2001, dated 2010).

The nature of data set [1]: general procedure: Fmoc solid-phase peptide synthesis; H-Ser(tBu)-chlorotrityl resin (0.75 mmol/g); TBTU, collidin. To be noted: late stage modification step, from 5a, TFA.
A short description of data set [2]: general procedure: Fmoc solid-phase peptide synthesis; H-Ser(tBu)-chlorotrityl resin; TBTU, collidin. As to conditions: whole synthesis, scale 14.0 mmol, TFA.

H-Lys-Thr-Ser-Orn-Ser-OH×3TFA: the step yield in data set [1] was 76%.

Take “H-Lys(Boc)-Thr(tBu)-Ser(tBu)-Orn(Boc)-Ser(tBu)-OH×TFA”: in data set [2], the isolated mass is on record as 9.3 g and the isolated yield is 64%.
